Data as given in PubChem BioAssay AID1259405 (NCATS, 2018)

Screen: 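Silenced genes that increase secreted GFP made by CHO cells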 (primary screen)
Cell system: Chinese hamster CHO-K1 ovary cells with stable secreted eGFP expression
Knock-down reagent: single siRNA against mouse genes, 0.8 pmol siRNA per well (2 µl of 400 nM stock)
Time to read-out: 3 days
Read-out: 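Percent of the per-plate non-targeting control median for intracellular GFP per well by laser scanning cytometry and for cell viability by ATP luminescence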
Reading the numbers: GFP, % of control: higher = more GFP per well, higher productivity; viability (ATP), % of control: higher = more viable cells (more ATP)
Rule for the call: 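a knock-down is called active if GFP reaches 120% or more of non-targeting control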
This is an unselected part of about 50,000 reagents. Over the whole deposit, about 4,000 (8%) were called active. 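Mouse siRNA library applied to hamster cells; one well for each siRNA.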 Entries without a mark were called inactive. Reagents against one gene are numbered here.

The first 13 records, to show the layout:
target,reagent,"GFP, % of control","viability (ATP), % of control"
Timm17b,1,72.4,51.2
Timm17b,2,88,70.1
Timm17b,3,67,56.3
Bnc2,1,55.5,59.7
Bnc2,2,57.1,60.2
Bnc2,3,92.7,138
Fosl1,1,83.5,81.8
Fosl1,2,91.6,57
Efna1,1,83.9,74.5
Efna1,2,89.4,76
Efna1,3,113,45.4
Nrip2,1,52.2,59
Nrip2,2,50.2,29.6

The list itself, from the start:
target,reagent,"GFP, % of control","viability (ATP), % of control"
Timm17b,1,72.4,51.2
Timm17b,2,88,70.1
Timm17b,3,67,56.3
Bnc2,1,55.5,59.7
Bnc2,2,57.1,60.2
Bnc2,3,92.7,138
Fosl1,1,83.5,81.8
Fosl1,2,91.6,57
Efna1,1,83.9,74.5
Efna1,2,89.4,76
Efna1,3,113,45.4
Nrip2,1,52.2,59
Nrip2,2,50.2,29.6
Nrip2,3,98.5,55.6
Irak1,1,139 (active),84.7
Irak1,2,72.5,66.1
Irak1,3,108,80.1
Cadm2,1,82.6,92.2
Cadm2,2,58.4,53.9
Cadm2,3,95.6,44.3
Dusp23,1,54.7,54.3
Dusp23,2,91.1,86
Dusp23,3,79.6,56.9
Tmem41a,1,115,70.8
Tmem41a,2,116,91.9
Tmem41a,3,104,96.1
Hoxa6,1,71,62
Hoxa6,2,100,69.9
Hoxa6,3,72.1,103
Or5m5,1,71.7,41
Or5m5,2,101,102
Or5m5,3,83.1,69.1
Gja6,1,102,78.9
Gja6,2,99.9,88
Gja6,3,60.2,54.6
Abcg2,1,82.9,99.1
Abcg2,2,55.4,58
Abcg2,3,77.2,93.8
Rpl37a,1,33.8,24
Rpl37a,2,80.8,87.1
Rpl37a,3,47.7,26.1
Mup20,1,103,67.4
Mup20,2,77,57.8
Mup20,3,29.7,20.3
Mapk1ip1,1,85.2,85.7
Mapk1ip1,2,49.8,36.3
Mapk1ip1,3,54.1,52.1
Appl1,1,61.5,80.6
Appl1,2,78,136
Appl1,3,62.8,88.9
Irf6,1,55.8,75.7
Irf6,2,77.5,58.1
Irf6,3,71.9,85.1
Smc1b,1,105,111
Smc1b,2,77.9,84.4
Gm5094,1,43.5,45.9
Gm5094,2,67.3,59.4
Gm5094,3,80.5,77.5
Phf7,1,84.3,77.2
Phf7,2,57.2,75.3
Anapc1,1,68.7,49.4
Anapc1,2,79.6,71.7
Anapc1,3,89.8,77.1
Fam111a,1,104,96.9
Fam111a,2,46.7,57
Fam111a,3,84.6,115
Rdh14,1,214 (active),78.6
Rdh14,2,42.6,51.3
Rdh14,3,87.1,106
Lyz1,1,80.7,76.9
Lyz1,2,71.1,80.7
Lyz1,3,93.4,78.7
Zfp704,1,176 (active),119
Zfp704,2,37.9,42.9
Zfp704,3,68.5,97.1
Mogat2,1,28.9,25.6
Mogat2,2,99.9,146
Mogat2,3,101,113
Nfatc2ip,1,102,89.9
Nfatc2ip,2,97,89.9
Nfatc2ip,3,119,84.5
Exoc7,1,67.4,70.4
Exoc7,2,84.7,64.2
Exoc7,3,82.6,43.5
Irf2,1,65.1,63.1
Irf2,2,85,88.6
Irf2,3,75.6,98.9
Or7g30,1,73,89.7
Or7g30,2,79.4,58.5
Or7g30,3,53.8,73.1
Tspan2,1,67.3,56.6
Tspan2,2,37.4,70.2
Tspan2,3,81.1,81.8
Lrrc20,1,50,63.7
Lrrc20,2,78.4,80
Lrrc20,3,149 (active),63.2
4932435O22Rik,1,151 (active),134
4932435O22Rik,2,24.2,50.7
4932435O22Rik,3,64.6,69.2
4932435O22Rik,4,122 (active),90.4
4932435O22Rik,5,101,96.3
4932435O22Rik,6,81.4,90.6
Ccdc68,1,117,97.3
Ccdc68,2,91.7,77.6
Ccdc68,3,111,83.5
Trcg1,1,62.1,64
Trcg1,2,69.6,53
Trcg1,3,73.3,50.1
